For the test, the target named is T1, EYFP-PP5-H304A (phosphatase-dead PP5) (human) (UniProt P53041).
T1 sequence: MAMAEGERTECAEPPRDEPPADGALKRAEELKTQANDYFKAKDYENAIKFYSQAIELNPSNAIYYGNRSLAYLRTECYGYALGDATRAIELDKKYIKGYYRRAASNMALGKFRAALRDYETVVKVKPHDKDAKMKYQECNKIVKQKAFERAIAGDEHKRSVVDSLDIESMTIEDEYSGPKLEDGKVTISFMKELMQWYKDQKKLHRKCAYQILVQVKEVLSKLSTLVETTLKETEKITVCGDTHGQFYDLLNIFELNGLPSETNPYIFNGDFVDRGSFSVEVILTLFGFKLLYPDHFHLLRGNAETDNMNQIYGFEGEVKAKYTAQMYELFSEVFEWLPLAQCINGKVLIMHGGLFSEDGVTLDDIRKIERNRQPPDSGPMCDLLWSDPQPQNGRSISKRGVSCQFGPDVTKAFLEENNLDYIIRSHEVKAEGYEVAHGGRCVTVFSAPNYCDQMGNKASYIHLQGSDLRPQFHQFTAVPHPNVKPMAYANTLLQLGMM
Nature of the test: co-IP; GFP-Trap beads holding EYFP-PP5-H304A; transfected HEK293T cells; Western blot. On the technique in general: Immunoblotting shows a protein as a band on a membrane.

Results are given in words; binding and its absence hold for the method and conditions named. In cells and extracts the contact can be indirect. Binding calls can cover weak binding; strength is not graded here. Sequences can lack the tags named with a protein.

As for “FLAG-Dvl2 D1 (Dvl2 with the DIX domain deleted) (human) (domain or fragment)”, the binding result is listed as “binds”.
